PubChem BioAssay AID743121, NCATS – 2013

- Screen: 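Genes whose silencing strengthens cell killing by camptothecin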 (primary screen)
- Cells: MDA-MB-231 cells, a human breast cancer line
- Knock-down reagent: single siRNA against human genes, 20 nM siRNA (0.8 pmol per well)
- Time to read-out: 120 h (drug added 48 h after transfection, read 72 h later)
- Conditions: camptothecin 20 nM (about EC30) for 72 h; vehicle 0.1% DMSO in parallel plates
- Detection: 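Cell viability by ATP luminescence (CellTiter-Glo) as % of non-targeting siRNA wells, and the log2 ratio of viability without drug over viability with camptothecin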
- Direction: log2 vehicle/camptothecin viability: higher = stronger sensitisation to camptothecin; viability with camptothecin: higher = more viable cells
- Active means: 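Each gene scored by redundant siRNA activity (RSA) over its individual siRNA ratios; a gene is called active at p < 0.001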
Here is one part, drawn at random, of about 26,000 deposited reagents. In the full data, 167 (0.63%) got an active call. 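Calls are per gene from RSA p-values that are not deposited; an individual active-marked siRNA can sensitise only weakly.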 Reagents against one gene are numbered here. Not all columns of the deposit are shown.

With knock-down of APH1A (aph-1A gamma-secretase subunit) #1, the screen gave log2 vehicle/camptothecin viability 0.251; viability with camptothecin (% of control) = 32; inactive.
Silencing of APH1A (aph-1A gamma-secretase subunit) #2 gave: log2 vehicle/camptothecin viability -0.554; viability with camptothecin (% of control) = 115; inactive.
Against APH1A (aph-1A gamma-secretase subunit) #3, the entry reads log2 vehicle/camptothecin viability -0.826; viability with camptothecin (% of control) = 65.1; inactive.
Depletion of APH1A (aph-1A gamma-secretase subunit) #4 resulted in: log2 vehicle/camptothecin viability 0.454; viability with camptothecin (% of control) = 56.5; inactive.
With knock-down of APH1A (aph-1A gamma-secretase subunit) #5, the record shows log2 vehicle/camptothecin viability 0.0363; viability with camptothecin (% of control) = 59.5; inactive.
For APH1A (aph-1A gamma-secretase subunit) #6, the entry reads log2 vehicle/camptothecin viability -0.0703; viability with camptothecin (% of control) = 47.3; inactive.
APH1A (aph-1A gamma-secretase subunit) #7 gave log2 vehicle/camptothecin viability -0.467; viability with camptothecin (% of control) = 101; inactive.
Knock-down of APH1A (aph-1A gamma-secretase subunit) #8 came out at: log2 vehicle/camptothecin viability 0.0585; viability with camptothecin (% of control) = 37.9; inactive.
With knock-down of ZNF101 (zinc finger protein 101) #1, the record shows log2 vehicle/camptothecin viability -0.199; viability with camptothecin (% of control) = 111; inactive.
Depletion of ZNF101 (zinc finger protein 101) #2 resulted in: log2 vehicle/camptothecin viability 0.293; viability with camptothecin (% of control) = 46.9; inactive.
With knock-down of ZNF101 (zinc finger protein 101) #3 the results were log2 vehicle/camptothecin viability -0.305; viability with camptothecin (% of control) = 119; inactive.
With knock-down of CYP2R1 (cytochrome P450 family 2 subfamily R member 1) #1, the record shows log2 vehicle/camptothecin viability -0.167; viability with camptothecin (% of control) = 106; inactive.
CYP2R1 (cytochrome P450 family 2 subfamily R member 1) #2 scored log2 vehicle/camptothecin viability 0; viability with camptothecin (% of control) = 99.2; inactive.
Against CYP2R1 (cytochrome P450 family 2 subfamily R member 1) #3, the entry reads log2 vehicle/camptothecin viability -0.246; viability with camptothecin (% of control) = 82; inactive.
For CYP2R1 (cytochrome P450 family 2 subfamily R member 1) #4, the values are log2 vehicle/camptothecin viability -0.0667; viability with camptothecin (% of control) = 105; inactive.
Silencing of ITPR1 (inositol 1,4,5-trisphosphate receptor type 1) #1 came out at: log2 vehicle/camptothecin viability 0.0958; viability with camptothecin (% of control) = 31.4; inactive.
For ITPR1 (inositol 1,4,5-trisphosphate receptor type 1) #2, the values are log2 vehicle/camptothecin viability -0.207; viability with camptothecin (% of control) = 90.5; inactive.
With knock-down of ITPR1 (inositol 1,4,5-trisphosphate receptor type 1) #3, the record shows log2 vehicle/camptothecin viability 0.274; viability with camptothecin (% of control) = 64.7; inactive.
ITPR1 (inositol 1,4,5-trisphosphate receptor type 1) #4 gave log2 vehicle/camptothecin viability -0.0693; viability with camptothecin (% of control) = 81; inactive.
Against HPR (haptoglobin-related protein) #1 the deposit lists log2 vehicle/camptothecin viability -0.362; viability with camptothecin (% of control) = 88.1; inactive.
HPR (haptoglobin-related protein) #2 gave log2 vehicle/camptothecin viability 0.0354; viability with camptothecin (% of control) = 105; inactive.
HPR (haptoglobin-related protein) #3 showed log2 vehicle/camptothecin viability 0.0821; viability with camptothecin (% of control) = 83.4; inactive.
HPR (haptoglobin-related protein) #4 showed log2 vehicle/camptothecin viability -0.597; viability with camptothecin (% of control) = 42.2; inactive.
Knock-down of PDC (phosducin) #1 resulted in: log2 vehicle/camptothecin viability -0.173; viability with camptothecin (% of control) = 129; inactive.
After knock-down of PDC (phosducin) #2, the record shows log2 vehicle/camptothecin viability -0.0699; viability with camptothecin (% of control) = 72.1; inactive.
After knock-down of PDC (phosducin) #3, the screen gave log2 vehicle/camptothecin viability 0.292; viability with camptothecin (% of control) = 20.4; inactive.
For PRKCA (protein kinase C alpha) #1 the deposit lists log2 vehicle/camptothecin viability -0.239; viability with camptothecin (% of control) = 67.9; inactive.
PRKCA (protein kinase C alpha) #2 gave log2 vehicle/camptothecin viability 0.0891; viability with camptothecin (% of control) = 87.1; inactive.
PRKCA (protein kinase C alpha) #3 gave log2 vehicle/camptothecin viability 0.223; viability with camptothecin (% of control) = 85.6; inactive.
Knock-down of PRKCA (protein kinase C alpha) #4 resulted in: log2 vehicle/camptothecin viability -0.43; viability with camptothecin (% of control) = 66.8; inactive.
Against ATP6V1A (ATPase H+ transporting V1 subunit A) #1, the entry reads log2 vehicle/camptothecin viability -0.598; viability with camptothecin (% of control) = 15; inactive.
For ATP6V1A (ATPase H+ transporting V1 subunit A) #2, the values are log2 vehicle/camptothecin viability -0.427; viability with camptothecin (% of control) = 64.6; inactive.
ATP6V1A (ATPase H+ transporting V1 subunit A) #3 gave log2 vehicle/camptothecin viability -0.0512; viability with camptothecin (% of control) = 63.1; inactive.
Against TIRAP (TIR domain containing adaptor protein) #1, the values are log2 vehicle/camptothecin viability -0.389; viability with camptothecin (% of control) = 94.8; inactive.
TIRAP (TIR domain containing adaptor protein) #2 scored log2 vehicle/camptothecin viability -0.344; viability with camptothecin (% of control) = 80; inactive.
TIRAP (TIR domain containing adaptor protein) #3 scored log2 vehicle/camptothecin viability 0.456; viability with camptothecin (% of control) = 54.9; inactive.
After knock-down of TIRAP (TIR domain containing adaptor protein) #4, the record shows log2 vehicle/camptothecin viability -0.401; viability with camptothecin (% of control) = 107; inactive.
With knock-down of TRIP4 (thyroid hormone receptor interactor 4) #1 the results were log2 vehicle/camptothecin viability -0.285; viability with camptothecin (% of control) = 66.9; inactive.
Knock-down of TRIP4 (thyroid hormone receptor interactor 4) #2 resulted in: log2 vehicle/camptothecin viability -0.0876; viability with camptothecin (% of control) = 54.7; inactive.
Against TRIP4 (thyroid hormone receptor interactor 4) #3 the deposit lists log2 vehicle/camptothecin viability -0.0261; viability with camptothecin (% of control) = 72.9; inactive.
TRIP4 (thyroid hormone receptor interactor 4) #4 showed log2 vehicle/camptothecin viability -0.389; viability with camptothecin (% of control) = 106; inactive.
For CYP26C1 (cytochrome P450 family 26 subfamily C member 1) #1, the values are log2 vehicle/camptothecin viability -0.252; viability with camptothecin (% of control) = 96; inactive.
Against CYP26C1 (cytochrome P450 family 26 subfamily C member 1) #2, the values are log2 vehicle/camptothecin viability 0.00187; viability with camptothecin (% of control) = 33.1; inactive.
Knock-down of CYP26C1 (cytochrome P450 family 26 subfamily C member 1) #3 came out at: log2 vehicle/camptothecin viability -0.264; viability with camptothecin (% of control) = 50; inactive.
With knock-down of CYP26C1 (cytochrome P450 family 26 subfamily C member 1) #4 the results were log2 vehicle/camptothecin viability -0.42; viability with camptothecin (% of control) = 81.4; inactive.

5 neighbouring records from above:
APH1A (aph-1A gamma-secretase subunit) #8 | log2 vehicle/camptothecin viability: 0.0585; viability with camptothecin (% of control): 37.9; Call: inactive
ZNF101 (zinc finger protein 101) #1 | log2 vehicle/camptothecin viability: -0.199; viability with camptothecin (% of control): 111; Call: inactive
ZNF101 (zinc finger protein 101) #2 | log2 vehicle/camptothecin viability: 0.293; viability with camptothecin (% of control): 46.9; Call: inactive
ZNF101 (zinc finger protein 101) #3 | log2 vehicle/camptothecin viability: -0.305; viability with camptothecin (% of control): 119; Call: inactive
CYP2R1 (cytochrome P450 family 2 subfamily R member 1) #1 | log2 vehicle/camptothecin viability: -0.167; viability with camptothecin (% of control): 106; Call: inactive
